Source: patent US20130023541A1, “VOLTAGE-GATED SODIUM CHANNEL BLOCKERS” (Glaxo Group Limited, priority 2010, published 2013)
Counter-ions that a name gives are not always drawn. Some of these results come from one statement about several compounds together. At least one structure is not confirmed: it was looked up by name or label, or the drawing left a doubt.

The chains behind the UniProt entries cited, without tags or fusion partners.
UniProt Q15858, whole entry: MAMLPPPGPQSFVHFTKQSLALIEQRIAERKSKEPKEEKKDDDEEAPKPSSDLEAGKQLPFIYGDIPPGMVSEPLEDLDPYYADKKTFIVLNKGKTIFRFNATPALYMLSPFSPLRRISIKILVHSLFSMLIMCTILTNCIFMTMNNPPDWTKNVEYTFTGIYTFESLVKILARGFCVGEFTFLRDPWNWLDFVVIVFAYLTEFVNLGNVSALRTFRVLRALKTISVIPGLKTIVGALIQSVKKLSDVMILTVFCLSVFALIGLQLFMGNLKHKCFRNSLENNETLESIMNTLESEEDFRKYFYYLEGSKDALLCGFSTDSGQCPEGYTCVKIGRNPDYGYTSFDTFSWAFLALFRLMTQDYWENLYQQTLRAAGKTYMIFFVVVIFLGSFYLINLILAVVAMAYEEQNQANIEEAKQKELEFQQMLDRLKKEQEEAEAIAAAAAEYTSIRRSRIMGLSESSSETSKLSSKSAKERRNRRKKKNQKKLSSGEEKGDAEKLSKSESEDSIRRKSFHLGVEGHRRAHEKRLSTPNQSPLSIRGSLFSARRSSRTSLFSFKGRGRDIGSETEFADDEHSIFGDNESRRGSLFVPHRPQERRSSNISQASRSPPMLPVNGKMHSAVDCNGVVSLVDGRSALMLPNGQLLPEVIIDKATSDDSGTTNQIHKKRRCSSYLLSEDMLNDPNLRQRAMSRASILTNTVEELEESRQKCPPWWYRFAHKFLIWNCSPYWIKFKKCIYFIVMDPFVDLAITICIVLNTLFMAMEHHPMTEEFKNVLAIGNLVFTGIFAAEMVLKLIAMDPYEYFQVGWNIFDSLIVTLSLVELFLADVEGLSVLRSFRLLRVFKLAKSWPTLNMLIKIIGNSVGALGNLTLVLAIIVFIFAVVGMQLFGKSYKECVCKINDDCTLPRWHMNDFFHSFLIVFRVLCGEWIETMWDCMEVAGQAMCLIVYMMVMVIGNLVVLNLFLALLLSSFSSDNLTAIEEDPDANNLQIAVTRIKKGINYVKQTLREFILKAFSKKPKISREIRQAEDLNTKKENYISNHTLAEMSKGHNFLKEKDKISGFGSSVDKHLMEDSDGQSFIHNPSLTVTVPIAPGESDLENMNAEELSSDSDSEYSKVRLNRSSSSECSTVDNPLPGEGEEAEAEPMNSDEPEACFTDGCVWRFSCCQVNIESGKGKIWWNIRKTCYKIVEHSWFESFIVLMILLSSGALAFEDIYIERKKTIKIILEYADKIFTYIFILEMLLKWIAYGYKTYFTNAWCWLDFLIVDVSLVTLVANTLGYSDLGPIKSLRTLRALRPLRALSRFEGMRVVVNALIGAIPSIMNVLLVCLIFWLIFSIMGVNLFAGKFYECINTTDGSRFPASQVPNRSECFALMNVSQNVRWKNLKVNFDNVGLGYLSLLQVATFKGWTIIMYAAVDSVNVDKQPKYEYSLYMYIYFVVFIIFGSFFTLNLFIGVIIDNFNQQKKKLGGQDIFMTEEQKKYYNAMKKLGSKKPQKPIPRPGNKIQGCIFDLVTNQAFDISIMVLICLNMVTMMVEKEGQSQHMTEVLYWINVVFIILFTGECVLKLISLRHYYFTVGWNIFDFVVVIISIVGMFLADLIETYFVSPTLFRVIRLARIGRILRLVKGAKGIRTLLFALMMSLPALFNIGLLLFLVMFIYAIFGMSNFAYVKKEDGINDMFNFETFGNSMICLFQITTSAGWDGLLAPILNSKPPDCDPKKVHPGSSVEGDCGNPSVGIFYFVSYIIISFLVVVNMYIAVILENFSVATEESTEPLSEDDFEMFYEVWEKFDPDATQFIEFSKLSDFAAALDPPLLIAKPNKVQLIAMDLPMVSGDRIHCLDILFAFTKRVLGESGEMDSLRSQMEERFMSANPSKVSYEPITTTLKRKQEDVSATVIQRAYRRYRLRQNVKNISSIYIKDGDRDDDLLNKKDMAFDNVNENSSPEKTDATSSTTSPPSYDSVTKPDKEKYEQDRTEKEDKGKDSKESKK
UniProt Q9NY46, whole entry: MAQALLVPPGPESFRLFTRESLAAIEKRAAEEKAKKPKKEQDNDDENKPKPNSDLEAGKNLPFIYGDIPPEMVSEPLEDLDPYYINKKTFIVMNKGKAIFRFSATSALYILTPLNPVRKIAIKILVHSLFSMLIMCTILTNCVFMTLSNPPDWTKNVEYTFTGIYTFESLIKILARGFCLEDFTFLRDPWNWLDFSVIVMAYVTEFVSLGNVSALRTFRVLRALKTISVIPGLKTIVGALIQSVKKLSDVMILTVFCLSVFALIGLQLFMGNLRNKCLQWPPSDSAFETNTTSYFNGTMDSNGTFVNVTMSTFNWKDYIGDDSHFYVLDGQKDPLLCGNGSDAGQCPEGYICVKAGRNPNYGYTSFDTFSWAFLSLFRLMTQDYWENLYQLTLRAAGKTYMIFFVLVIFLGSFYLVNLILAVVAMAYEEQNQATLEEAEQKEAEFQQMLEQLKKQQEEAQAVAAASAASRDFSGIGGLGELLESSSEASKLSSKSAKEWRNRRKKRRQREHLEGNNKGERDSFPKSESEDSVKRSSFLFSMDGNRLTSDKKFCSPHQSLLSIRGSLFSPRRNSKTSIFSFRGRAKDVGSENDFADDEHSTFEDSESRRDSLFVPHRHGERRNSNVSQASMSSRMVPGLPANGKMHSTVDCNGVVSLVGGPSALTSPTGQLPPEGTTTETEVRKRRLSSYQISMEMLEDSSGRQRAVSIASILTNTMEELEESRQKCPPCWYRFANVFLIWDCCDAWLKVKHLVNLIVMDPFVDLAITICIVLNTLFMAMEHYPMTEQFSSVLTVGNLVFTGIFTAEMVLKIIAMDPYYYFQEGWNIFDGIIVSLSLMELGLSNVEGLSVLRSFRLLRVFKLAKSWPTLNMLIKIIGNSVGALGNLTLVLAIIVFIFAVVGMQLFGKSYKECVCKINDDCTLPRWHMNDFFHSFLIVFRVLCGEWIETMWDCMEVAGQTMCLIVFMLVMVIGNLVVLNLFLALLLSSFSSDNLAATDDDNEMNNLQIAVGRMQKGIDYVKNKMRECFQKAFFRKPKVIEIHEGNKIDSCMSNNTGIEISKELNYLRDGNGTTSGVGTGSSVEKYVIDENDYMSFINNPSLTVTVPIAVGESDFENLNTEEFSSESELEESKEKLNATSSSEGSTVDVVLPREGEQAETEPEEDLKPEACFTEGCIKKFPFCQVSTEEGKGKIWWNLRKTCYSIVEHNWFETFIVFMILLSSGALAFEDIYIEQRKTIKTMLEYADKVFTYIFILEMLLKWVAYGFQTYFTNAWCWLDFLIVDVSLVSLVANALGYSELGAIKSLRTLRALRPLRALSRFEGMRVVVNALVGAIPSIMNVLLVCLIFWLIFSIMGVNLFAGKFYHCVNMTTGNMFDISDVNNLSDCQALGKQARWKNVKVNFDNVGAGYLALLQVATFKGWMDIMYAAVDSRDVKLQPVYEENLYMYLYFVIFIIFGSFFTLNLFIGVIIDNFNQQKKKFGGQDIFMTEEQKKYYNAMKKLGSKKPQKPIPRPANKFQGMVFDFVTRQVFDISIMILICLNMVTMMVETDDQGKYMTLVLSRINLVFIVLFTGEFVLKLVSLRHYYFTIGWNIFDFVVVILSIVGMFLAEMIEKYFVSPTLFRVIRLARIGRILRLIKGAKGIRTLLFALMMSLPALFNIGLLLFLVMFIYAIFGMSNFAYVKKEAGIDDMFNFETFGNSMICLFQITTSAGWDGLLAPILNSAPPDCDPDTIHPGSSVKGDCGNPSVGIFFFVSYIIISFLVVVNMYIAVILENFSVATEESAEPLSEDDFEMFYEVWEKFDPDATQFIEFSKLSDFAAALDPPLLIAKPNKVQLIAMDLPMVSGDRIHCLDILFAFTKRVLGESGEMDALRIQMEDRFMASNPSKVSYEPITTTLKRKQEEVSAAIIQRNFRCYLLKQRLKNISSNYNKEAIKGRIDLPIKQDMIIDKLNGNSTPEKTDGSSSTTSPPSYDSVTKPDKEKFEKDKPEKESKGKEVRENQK

Legend:
[1] = target: NaV 1.7 (Homo sapiens, UniProt Q15858); test: Use-dependent block of NaV1.7 currents, IonWorks Quattro planar array electrophysiology; assay type: cell-based; conditions: concentration producing 15% use-dependent inhibition, 10th versus 1st depolarizing pulse, 10 Hz
[2] = target: T1, hNaV1.3 channels (Homo sapiens, UniProt Q9NY46); test: Use-dependent block of hNaV1.3 currents, IonWorks Quattro planar array electrophysiology; assay type: cell-based; conditions: concentration producing 15% use-dependent inhibition, 10th versus 1st depolarizing pulse, 10 Hz, CHO cells
T1 construct: expressed in transfected cells

Structure (SMILES)	use-dependent pUD15 against NaV1.7 [1]	use-dependent pUD15 against NaV1.3 [2]
CC(C)OC(=O)c1cccnc1N1CCN(Cc2cccc(COc3ccccc3C(F)(F)F)c2)CC1 [Example 215]	inactive	4-4.99
COC(=O)c1ccc(CN2CCN(c3nccc(C)c3C(=O)OC(C)C)CC2)cc1 [Example 230, 1-methylethyl 4-methyl-2-[4-({4-[(methyloxy)carbonyl]phenyl}methyl)-1-piperazinyl]-3-pyridinecarboxylate]	5-5.99	5-5.99
CCN(Cc1cccc(OCc2ccccc2)c1)[C@H]1CCN(c2ncccc2C(=O)OC(C)C)C1 [Example 178]	5-5.99	5-5.99
CCN(Cc1ccc(-c2ccccc2)cc1)[C@@H]1CCN(c2ncccc2C(=O)OC(C)C)C1 [Example 47, 1-methylethyl 2-{(3R)-3-[(4-biphenylylmethyl)(ethyl)amino]-1-pyrrolidinyl}-3-pyridine carboxylate]	4-4.99	4-4.99
CCN(Cc1ccccc1-c1ccccc1C)[C@@H]1CCN(c2nccc(C)c2C(=O)OC(C)C)C1 [Example 292, 1-methylethyl 2-((3R)-3-{ethyl[(2′-methyl-2-biphenylyl)methyl]amino}-1-pyrrolidinyl)-4-methyl-3-pyridinecarboxylate]	5-5.99	5-5.99
CC(C)OC(=O)c1cccnc1N1CCN(Cc2ccc(OCc3ccccc3)c(Cl)c2)CC1 [Example 314, 1-methylethyl 2-[4-({3-chloro-4-[(phenylmethyl)oxy]phenyl}methyl)-1-piperazinyl]-3-pyridinecarboxylate]	4-4.99	4-4.99
CCN(Cc1cc(C)c(C)o1)[C@@H]1CCN(c2nccc(C)c2C(=O)OC(C)C)C1 [Example 302, 1-methylethyl 2-{(3R)-3-[[(4,5-dimethyl-2-furanyl)methyl](ethyl)amino]-1-pyrrolidinyl}-4-methyl-3-pyridinecarboxylate]	5-5.99	5-5.99
CC(C)OC(=O)c1cccnc1N1CCN(Cc2ccc(OCc3cc(Cl)ccc3F)cc2)CC1 [Example 441]	5-5.99	4-4.99
COc1ccc(CN2CCN(c3ncccc3C(=O)OC(C)C)CC2)cc1OCc1ccccc1 [Example 309, 1-methylethyl 2-[4-({4-(methyloxy)-3-[(phenylmethyl)oxy]phenyl}methyl)-1-piperazinyl]-3-pyridinecarboxylate]	5-5.99	5-5.99
CC(C)OC(=O)c1cccnc1N1CCN(Cc2ccc(COc3c(F)cccc3F)cc2)CC1 [Example 189]	inactive	4-4.99
COc1cc(Cl)ccc1COc1cccc(CN2CCN(c3ncccc3C(=O)OC(C)C)CC2)c1 [Example 418]	inactive	4-4.99
CCCOc1ccc(CN(CC)[C@@H]2CCN(c3nccc(-c4ccccc4)c3C(=O)OC(C)C)C2)cc1 [Example 158, 1-methylethyl 2-[(3R)-3-(ethyl{[4-(propyloxy)phenyl]methyl}amino)-1-pyrrolidinyl]-4-phenyl-3-pyridinecarboxylate]	inactive	4-4.99
CC(C)OC(=O)c1cccnc1N1CCN(Cc2cccc(OCc3ccccc3Cl)c2)CC1 [Example 82]	inactive	5-5.99
CCN(Cc1ccc(CN2CCN(c3ncccc3C(=O)OC(C)C)CC2)cc1)Cc1cccc(Cl)c1 [Example 496, 1-methylethyl 2-{4-[(4-{[[(3-chlorophenyl)methyl](ethyl)amino]methyl}phenyl)methyl]-1-piperazinyl}-3-pyridinecarboxylate]	5-5.99	5-5.99
COc1ccccc1Nc1cccc(CN2CCN(c3ncccc3C(=O)OC(C)C)CC2)c1 [Example 113, 1-methylethyl 2-{4-[(3-{[2-(methyloxy)phenyl]amino}phenyl)methyl]-1-piperazinyl}-3-pyridinecarboxylate]	inactive	inactive
CCN(Cc1ccc(-c2ccccc2)o1)[C@@H]1CCN(c2ncccc2C(=O)OC(C)C)C1 [Example 46, 1-methylethyl 2-((3R)-3-{ethyl[(5-phenyl-2-furanyl)methyl]amino}-1-pyrrolidinyl)-3-pyridinecarboxylate]	5-5.99	4-4.99
CC(C)OC(=O)c1cccnc1N1CCN(Cc2ccc(OCc3ccc(F)cc3F)cc2)CC1 [Example 434]	5-5.99	5-5.99
CC(C)OC(=O)c1c(Nc2ccc(C#N)cc2)ccnc1N1CCN(Cc2ccccc2)CC1 [Example 101, 1-methylethyl 4-[(4-cyanophenyl)amino]-2-[4-(phenylmethyl)-1-piperazinyl]-3-pyridinecarboxylate]	4-4.99	4-4.99
Cc1ccc(OCc2cccc(CN3CCN(c4ncccc4C(=O)OC(C)C)CC3)c2)cc1 [Example 218]	4-4.99	4-4.99

Structure (SMILES)	use-dependent pUD15 against NaV1.7 [1]	use-dependent pUD15 against NaV1.3 [2]
COC(=O)c1ccc(-c2ccc(CN3CCN(c4ncccc4C(=O)OC(C)C)CC3)cc2)cc1 [Example 363]	inactive	4-4.99
COc1cc(OC)cc(OCc2cccc(CN3CCN(c4ncccc4C(=O)OC(C)C)CC3)c2)c1 [Example 214]	5-5.99	5-5.99
CC(C)OC(=O)c1cccnc1N1CCN(Cc2ccc(OCc3ccccc3C(F)(F)F)cc2)CC1 [Example 462]	inactive	4-4.99
COc1ccc(Oc2ccc(CN3CCN(c4ncccc4C(=O)OC(C)C)CC3)cc2)cc1 [Example 359]	4-4.99	5-5.99
CC(C)OC(=O)c1c(Nc2ccccc2)ccnc1N1CCN(Cc2ccccc2)CC1 [Example 108, 1-methylethyl 4-(phenylamino)-2-[4-(phenylmethyl)-1-piperazinyl]-3-pyridinecarboxylate]	4-4.99	4-4.99
Cc1ccc(-c2ccc(CN3CCN(c4ncccc4C(=O)OC(C)C)CC3)cc2)cc1 [Example 351]	inactive	5-5.99
CCNCc1ccc(CN2CCN(c3ncccc3C(=O)OC(C)C)CC2)cc1 [Example 473, 1-Methylethyl 2-[4-({4-[(ethylamino)methyl]phenyl}methyl)-1-piperazinyl]-3-pyridine carboxylate dihydrochloride]	inactive	4-4.99
Cc1cc(C)cc(COc2ccc(CN3CCN(c4ncccc4C(=O)OC(C)C)CC3)cc2)c1 [Example 431]	inactive	4-4.99
Cc1ccnc(N2CCN(Cc3c(C)noc3C)CC2)c1C(=O)OC(C)C [Example 243]	5-5.99	5-5.99
CCN(Cc1ccccc1C)[C@@H]1CCN(c2nccc(-c3ccccc3)c2C(=O)OC(C)C)C1 [Example 160, 1-methylethyl 2-((3R)-3-{ethyl[(2-methylphenyl)methyl]amino}-1-pyrrolidinyl)-4-phenyl-3-pyridinecarboxylate]	inactive	4-4.99
Cc1ccnc(N2CCN(Cc3cnc(N4CCN(C)CC4)s3)CC2)c1C(=O)OC(C)C [Example 255]	5-5.99	5-5.99
CC(C)OC(=O)c1cccnc1N1CCN(Cc2ccc(OCc3ccc(-c4ccccc4)cc3)cc2)CC1 [Example 458]	inactive	inactive
CC(C)OC(=O)c1c(Sc2ccccc2)ccnc1N1CCN(Cc2ccccc2)CC1 [Example 109, 1-methylethyl 2-[4-(phenylmethyl)-1-piperazinyl]-4-(phenylthio)-3-pyridinecarboxylate]	4-4.99	4-4.99
CCN(Cc1ccc(-c2cccs2)cc1)[C@@H]1CCN(c2ncccc2C(=O)OC(C)C)C1 [Example 49, 1-methylethyl 2-[(3R)-3-(ethyl{[4-(2-thienyl)phenyl]methyl}amino)-1-pyrrolidinyl]-3-pyridine carboxylate]	inactive	4-4.99
CCN(Cc1ccc(OCc2c(F)cccc2Cl)c(OC)c1)[C@H]1CCN(c2ncccc2C(=O)OC(C)C)C1 [Example 171]	5-5.99	5-5.99
CCN(Cc1ccc(CN2CCN(c3ncccc3C(=O)OC(C)C)CC2)cc1)Cc1cccc(OC)c1 [Example 227]	5-5.99	5-5.99
Cc1ccc(Oc2ccc(CN3CCN(c4ncccc4C(=O)OC(C)C)CC3)cc2)cc1 [Example 346]	4-4.99	5-5.99
CCN[C@H]1CCN(c2ncccc2C(=O)OC(C)C)C1 [Example 39, 1-Methylethyl 2-[(3S)-3-(ethylamino)-1-pyrrolidinyl]-3-pyridinecarboxylate hydrochloride]	4-4.99	5-5.99
Cc1ccc(Oc2cccc(CN3CCN(c4ncccc4C(=O)OC(C)C)CC3)c2)cc1 [Example 339]	inactive	4-4.99
